# This is one part of the list. The main result of the screen is listed elsewhere. These columns were measured beside it and carry no call. Most of these compounds were active or inconclusive in the main read-out, so they are no random draw. Potencies come from curve fits of mixed quality, noted in brackets.
# Test: qHTS Assay for Lipid Storage Modulators in Drosophila S3 Cells;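 for cell number change: cells counted by Cell Tracker Red CMTPX staining in the red channel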
# Details: BODIPY lipid droplet fluorescence, 18-24 h; for cell number change: measured here: cell count max response, cells fed with added oleic acid
# How it was run: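 Drosophila S3 cells loaded with oleic acid (400 uM, as added) and compounds at several concentrations; lipid droplets imaged by 488-nm laser-scanning cytometry, 500–530 nm intensity and object ratio to cell channel. Percent activity normalized to 20 uM Triacsin C.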
# [1] = measured here: cell number channel AC50, cells fed with added oleic acid
# [2] = measured here: lipid fluorescence (Fed channel) AC50, cells fed with added oleic acid
Compound,cell number change [%],AC50 [1],AC50 [2]
Cc1ccccc1CS(=O)(=O)Cc1ccc(C(=O)NC2CCCCC2)o1,7.91,"116 nM [rising, partial curve, poor fit]",–
CCn1c(C)nnc1SCC(=O)Nc1nccs1,-13.2,–,"631 nM [rising, full curve, poor fit]"
COc1ccc(OCCCN2CCc3ccccc3C2)cc1,13.2,–,"6510 nM [rising, partial curve]"
CCCCc1nc(NCc2ccccc2)c(C#N)c2c1COC(C)(C)C2,5.79,–,"146 nM [falling, full curve, poor fit]"
CCOCCCNC(=O)C1CCCN1C(=O)NC1CCCCC1 (configuration not stated),–,–,"29100 nM [falling, single point]"
C=C(C)C1CC=C(C)/C(=N\NC(=O)CCc2ccccc2)C1 (configuration not stated),–,"920 nM [rising, single point]","6510 nM [rising, partial curve]"
O=C(Nc1ccccc1C(=O)N1CCOCC1)c1noc2c1CCCC2,0.729,–,–
CCOC(=O)c1ccc(N2C(=O)C3ON(c4ccccc4)C(c4ccco4)C3C2=O)cc1 (configuration not stated),40.6,"6510 nM [rising, single point]","11.6 nM [rising, full curve]"
CC(=O)c1ccc(S(=O)(=O)N2CCCCC2C(=O)O)cc1 (configuration not stated),4.88,–,"820 nM [falling, full curve]"
CC(=O)C[C@H](O)CC(=O)[C@H]1OC(=O)CCCCCCCc2ccccc21,-12.2,–,"20600 nM [rising, single point]"
Cc1ccc(N=Nc2c(O)n(CN3CCOCC3)c3ccccc23)cc1,49.1,"29100 nM [rising, single point]","23100 nM [falling, single point]"
CNc1nc2c(c(=O)n(C)c(=O)n2C)n1CCCc1ccccc1,-40.2,"11600 nM [falling, partial curve]","146 nM [falling, full curve, poor fit]"
O=C(N/N=C/c1ccc(Cl)c([N+](=O)[O-])c1)c1cc(-c2ccc3c4c(cccc24)CC3)n[nH]1,-5.17,–,"32600 nM [falling, single point]"
O=C(NCCc1ccccc1Cl)C1CCC(=O)N(Cc2ccc(Cl)cc2)C1 (configuration not stated),4.88,–,"5170 nM [falling, partial curve, poor fit]"
CC1SCC(=O)N(CC(=O)Nc2ccc3c(c2)OCCO3)C1=O (configuration not stated),-5.6,–,–
CNc1nnc(CSc2nc(C)cc(C)n2)s1,9.17,–,"10300 nM [rising, single point]"

# Two entries from above, as tab-separated lines.
Compound	cell number change [%]	AC50 [1]	AC50 [2]
C=C(C)C1CC=C(C)/C(=N\NC(=O)CCc2ccccc2)C1 (configuration not stated)	–	920 nM [rising, single point]	6510 nM [rising, partial curve]
O=C(Nc1ccccc1C(=O)N1CCOCC1)c1noc2c1CCCC2	0.729	–	–

# (continued)

Compound,cell number change [%],AC50 [1],AC50 [2]
CC(=O)OCC(OC(C)=O)C(OC(C)=O)C(OC(C)=O)C(=O)Nc1ccc(C)cc1 (configuration not stated),–,"2910 nM [falling, single point]",–
COc1ccc(CCNC(=O)Cn2cccc2C(=O)c2ccccc2)cc1OC,–,–,"206 nM [falling, full curve]"
CCCn1c(N)c(C(=O)CSc2ncc(C(F)(F)F)cc2Cl)c(=O)[nH]c1=O,-6.83,"1640 nM [falling, partial curve, poor fit]","2910 nM [falling, partial curve]"
Cc1cc(C)cc(NC(=O)CCN2C(=O)c3ccccc3S2(=O)=O)c1,15.9,–,–
COc1ccc(CN2CCN(Cc3c[nH]c4ccccc34)CC2)cc1,12.5,–,–
COc1cccc(NC(=O)N2CCN(c3nnnn3-c3ccccc3)CC2)c1,10.4,–,"206 nM [falling, full curve, poor fit]"
Cc1nc(C(=O)NC2CCCCC2)sc1C1(C)CC(c2cccc([N+](=O)[O-])c2)=NO1 (configuration not stated),–,–,"29100 nM [rising, single point]"
O=C(CN1c2cccc3cccc(c23)S1(=O)=O)Nc1ccccc1,16.8,–,–
Cc1ccc(OCc2ccc(C(=O)Nc3nccs3)o2)cc1,56.2,"11600 nM [rising, partial curve, poor fit]",–
O=C(c1csc2c1CCCC2)N1CCN(c2cccc(C(F)(F)F)c2)CC1,6.29,–,–
CCCOC(=O)c1[nH]c2c(c1C)C(=O)CC(c1ccc(OC)c(OC)c1)C2 (configuration not stated),7.26,–,"1460 nM [rising, partial curve]"
C/C(=N\NC(=O)C1CCCC1)c1ccc(C(C)C)cc1,-20.1,–,–
O=C1C2CCCN2C(c2cccc(F)c2)N1c1cccc(Cl)c1 (configuration not stated),-3.04,–,"116 nM [falling, full curve, poor fit]"
CCc1cc2c(CN3CCN(CC)CC3)cc(=O)oc2cc1O,9.63,–,"10300 nM [falling, partial curve, poor fit]"
Cc1ccc(C(=O)c2sc3nsc(C)c3c2N)cc1,–,–,"6510 nM [rising, single point]"
CCOC(=O)CSC1=NN2CCS(=O)(=O)N=C2S1,-17.8,"1160 nM [falling, single point]","1460 nM [falling, partial curve, poor fit]"

# — PubChem BioAssay AID2685 (National Center for Advancing Translational Sciences (NCATS), 2010)
